The target in the experiment is T1, Squalene synthase (Rattus norvegicus, UniProt Q02769).
T1 sequence (Q02769 whole entry): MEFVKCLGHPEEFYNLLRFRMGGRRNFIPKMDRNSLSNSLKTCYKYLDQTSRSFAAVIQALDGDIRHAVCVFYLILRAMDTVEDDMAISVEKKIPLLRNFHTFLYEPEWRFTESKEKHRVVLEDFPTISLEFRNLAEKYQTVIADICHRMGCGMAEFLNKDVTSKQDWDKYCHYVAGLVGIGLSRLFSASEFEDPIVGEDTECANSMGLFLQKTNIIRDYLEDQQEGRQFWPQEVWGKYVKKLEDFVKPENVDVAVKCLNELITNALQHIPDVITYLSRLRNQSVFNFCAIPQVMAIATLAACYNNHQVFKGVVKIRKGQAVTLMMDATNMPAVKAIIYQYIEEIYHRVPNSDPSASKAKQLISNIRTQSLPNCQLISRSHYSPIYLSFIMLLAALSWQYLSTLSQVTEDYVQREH
The experiment is described as follows: Tested for inhibition against squalene synthase enzyme in rat liver.

These results are taken from ChEMBL document CHEMBL1127414 (J Med Chem, 1994).

The IC50 is the point on the concentration scale where inhibition reaches its midpoint. For `C=C(CCC12OC(C(=O)O)C(O)(C(=O)O)C(C(=O)O)(O1)[C@H](O)[C@H]2O)[C@@H](OC(C)=O)[C@H](C)Cc1ccccc1` (stereo partly specified), the IC50 came out at 0.03 µM.
